The text below walks through data of the supplement of paper PMC10735217.

The list shows a part of the results. This data set is noisy: repeats of one test often differ as much as different tests do.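 In a drug-repurposing library screen, luminescence reads luciferase driven by eight TEAD-binding elements, stably integrated into human kidney-derived cells. Compounds scoring over five robust Z scores above the plate mean are called hits.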

In this experiment the test system is HEK293A TEAD-LUC reporter. In words: TEAD-luciferase reporter activity (YAP activation), robust Z score vs plate; higher = stronger YAP/TEAD activation. The settings on record: 24 h. In general terms: Reporter assays use an easily measured gene product as a stand-in for the process of interest.

For `CC[C@H](C)[C@H](NC(=O)[C@H](CO)NC(=O)[C@H](CCCCN)NC(=O)CNC(=O)[C@H](CCCCN)NC(=O)[C@H](CC(=O)O)NC(=O)[C@H](Cc1cnc[nH]1)NC(=O)[C@H](CC(C)C)NC(=O)[C@H](CC(C)C)NC(=O)[C@H](CCC(N)=O)NC(=O)[C@H](Cc1cnc[nH]1)NC(=O)[C@H](CCC(=O)O)NC(=O)[C@H](CO)NC(=O)[C@@H](NC(=O)[C@H](C)N)C(C)C)C(=O)N[C@@H](CCC(N)=O)C(=O)N[C@@H](CC(=O)O)C(=O)N[C@@H](CC(C)C)C(=O)N[C@@H](CCCNC(=N)N)C(=O)N[C@@H](CCCNC(=N)N)C(=O)N[C@@H](CCCNC(=N)N)C(=O)N[C@@H](CCC(=O)O)C(=O)N[C@@H](CC(C)C)C(=O)N[C@@H](CC(C)C)C(=O)N[C@@H](CCC(=O)O)C(=O)N[C@@H](CCCCN)C(=O)N[C@@H](CC(C)C)C(=O)N[C@@H](CC(C)C)C(=O)NC(C)(C)C(=O)N[C@@H](CCCCN)C(=O)N[C@@H](CC(C)C)C(=O)N[C@@H](Cc1cnc[nH]1)C(=O)N[C@H](C(=O)N[C@@H](C)C(N)=O)[C@@H](C)O` [Abaloparatide], the TEAD-luciferase reporter activity (compound concentration: 200 nM) is inactive: -1.73, the TEAD-luciferase reporter activity (compound concentration: 2 uM) is inactive: 0.043 and the TEAD-luciferase reporter activity (compound concentration: 10 uM) was active: 7.
The matching figures for `NCCCC[C@H](NC(=O)[C@H](Cc1c[nH]cn1)NC(=O)CN)C(=O)O` [Glycyl-L-histidyl-L-lysine]: inactive: 0.457, inactive: 0.424 and inactive: -0.0219.
Consider `COc1cccc(C(=O)NC[C@@H]2CC[C@H]3C[C@@H]2C3(C)C)c1`, for which the TEAD-luciferase reporter activity (compound concentration: 200 nM) is inactive: 4.18 and the TEAD-luciferase reporter activity (compound concentration: 10 uM) was inactive: 3.35.
On to `Cc1ccc(S(=O)(=O)OCC(=O)Nc2ccc(C(=O)O)c(O)c2)cc1`, for which the TEAD-luciferase reporter activity is, setting by setting: (compound concentration: 200 nM) inactive: -3.69; (compound concentration: 2 uM) inactive: -1.61; (compound concentration: 10 uM) inactive: 0.638.
The matching figures for `CN(C)CCC(Oc1ccc2oc(-c3ccccc3)cc(=O)c2c1)c1ccccc1` (stereo not drawn): inactive: 2.64, inactive: -0.553 and inactive: -0.855.
The matching figures for `CNC(=S)C1(c2cccnc2)CCCC[S+]1[O-]` (stereo not drawn): inactive: -0.549, inactive: -0.791 and inactive: -0.0436.
As for `CCOc1cc(C(CC(=O)NOC(=O)CC)N2C(=O)c3ccccc3C2=O)ccc1OC` (stereo not drawn), the TEAD-luciferase reporter activity by setting is: (compound concentration: 200 nM) inactive: -0.737; (compound concentration: 2 uM) inactive: 0.406; (compound concentration: 10 uM) inactive: -0.191.
The matching figures for `CC(C)C[C@H](NC(=O)CNC(=O)c1cc(Cl)ccc1Cl)B(O)O` [Ixazomib]: inactive: 4.69, inactive: -0.777 and inactive: 3.19.
As to `CC1CC(O)(CC(=O)O)c2cc(F)c(Cl)cc2O1` (stereo not drawn), the TEAD-luciferase reporter activity reads like this: (compound concentration: 200 nM) inactive: -1.54; (compound concentration: 2 uM) inactive: -0.681; (compound concentration: 10 uM) inactive: -0.963.
On to `CC[C@H](C)[C@H](N)C(=O)N[C@@H](CC(=O)O)C(=O)N[C@@H](CCC(N)=O)C(=O)N[C@@H](CCC(N)=O)C(=O)N[C@H](C(=O)N[C@@H](CC(C)C)C(=O)N[C@@H](CO)C(=O)N[C@@H](CCCNC(=N)N)C(=O)N[C@H](C(=O)N[C@@H](CCCCN)C(=O)N[C@@H](CC(C)C)C(=O)N[C@@H](CCC(=O)O)C(=O)N[C@H](C(=O)N[C@@H](CCCCN)C(=O)N[C@@H](CCCNC(=N)N)C(=O)N[C@@H](CS)C(=O)N[C@@H](CC(C)C)C(=O)O)[C@@H](C)CC)[C@@H](C)CC)C(C)C` [Fexapotide triflutate], for which the TEAD-luciferase reporter activity runs as follows: (compound concentration: 200 nM) inactive: -0.854; (compound concentration: 2 uM) inactive: -0.534; (compound concentration: 10 uM) inactive: 0.213.
Regarding `COC(=O)c1ccc2c(c1)NC(=O)/C2=C(\Nc1ccc(N(C)C(=O)CN2CCN(C)CC2)cc1)c1ccccc1` [nintedanib], the TEAD-luciferase reporter activity reads like this: (compound concentration: 200 nM) inactive: -0.644; (compound concentration: 2 uM) inactive: -0.843; (compound concentration: 10 uM) inactive: 3.33.
For `C[C@]12CCC(=O)C=C1CC[C@H]1[C@@H]3CC[C@](O)(C(=O)CO)[C@@]3(C)C[C@H](O)[C@@]12F`, the TEAD-luciferase reporter activity (compound concentration: 200 nM) is inactive: -0.522, the TEAD-luciferase reporter activity (compound concentration: 2 uM) was inactive: -1.04 and the TEAD-luciferase reporter activity (compound concentration: 10 uM) was inactive: -0.393.
The matching figures for `O=C(O)COc1cccc2c1CC[C@@](O)(COC(=O)N(c1ccccc1)c1ccccc1)C2`: inactive: 0.596, inactive: 0.278 and inactive: 1.72.
Take `CSc1nc2cc(Oc3cccc(Cl)c3Cl)c(Cl)cc2[nH]1` [Triclabendazole]: the TEAD-luciferase reporter activity was inactive: -2.23 (compound concentration: 200 nM) and inactive: -0.602 (compound concentration: 10 uM).
For `CCC[C@@H](NC(=O)N1C(=O)C(CC)(CC)[C@@H]1Oc1ccc(CC(=O)O)cc1)c1ccc(C)cc1`, the TEAD-luciferase reporter activity is inactive: -1.54 (compound concentration: 200 nM), inactive: -1.71 (compound concentration: 2 uM) and inactive: -0.293 (compound concentration: 10 uM).
As for `CNC(=O)N1CC(Oc2cccc(C(F)(F)F)c2)C1`, the TEAD-luciferase reporter activity was inactive: 1.33 (compound concentration: 200 nM), inactive: -1.11 (compound concentration: 2 uM) and inactive: -1.31 (compound concentration: 10 uM).
As for `CCN(CC)CCOc1ccc(-c2nc3cc(Cl)ccc3s2)cc1`, the TEAD-luciferase reporter activity reads like this: (compound concentration: 200 nM) inactive: 2.15; (compound concentration: 2 uM) inactive: 0.782; (compound concentration: 10 uM) inactive: 3.01.
As for `O=P([O-])(O)C(Cl)(Cl)P(=O)([O-])O` [clodronate disodium, Abiogen], the TEAD-luciferase reporter activity is inactive: -0.364 (compound concentration: 200 nM), inactive: 3.17 (compound concentration: 2 uM) and inactive: -1.2 (compound concentration: 10 uM).
The matching figures for `CC1(C)CCC(c2ccc(Cl)cc2)=C(CN2CCN(c3ccc(C(=O)NS(=O)(=O)c4ccc(N[C@H](CCN5CCOCC5)CSc5ccccc5)c(S(=O)(=O)C(F)(F)F)c4)cc3)CC2)C1` [navitoclax]: inactive: 2.53, inactive: -1.07 and inactive: -0.831.
The matching figures for `C[C@@H](O)[C@H]1C(=O)N2C(C(=O)[O-])=C(SC(=S)N(C)CCO)[C@H](C)[C@H]12`: inactive: -0.281, inactive: -0.647 and inactive: 0.378.
The matching figures for `NCCCCN(Cc1nc2ccccc2[nH]1)[C@H]1CCCc2cccnc21`: inactive: -1.38, inactive: 0.157 and inactive: -0.0607.
For the molecule `O=C(c1cc(-c2ccccc2)c(=O)n2c1-c1cc(Cl)ccc1CC2)N1CC[C@H](O)C1`, the TEAD-luciferase reporter activity by setting is: (compound concentration: 200 nM) inactive: 1.95; (compound concentration: 2 uM) inactive: 0.864; (compound concentration: 10 uM) inactive: -0.798.
The matching figures for `CC(=O)NC[C@H]1CN(c2cc(F)c(N3CCS(=O)(=O)CC3)c(F)c2)C(=O)O1`: inactive: -1.45, inactive: -0.616 and inactive: 1.27.
The matching figures for `Cc1ncccc1C(C#N)N1CCN(C(=O)CNC(c2ccccc2)c2ccccc2)CC1` (stereo not drawn): inactive: -1.2, inactive: 2.13 and inactive: 0.852.
Regarding `CCOC(=O)COc1cc(C)c(CCN[C@@H](C)[C@H](O)c2ccc(O)cc2)cc1C`, the TEAD-luciferase reporter activity was inactive: -0.819 (compound concentration: 200 nM), inactive: 1.87 (compound concentration: 2 uM) and inactive: -1.12 (compound concentration: 10 uM).
